system: human breast cancer (MCF7) cells; test: MTT cell viability assay, MCF7; assay type: cell-based; conditions: in vitro
Protocol: The cytotoxic effect of the Hapbim ligand and its complexes (1) and (2) on human breast cancer (MCF7), human colorectal cancer (Caco2), and human normal liver (THLE-2) cell lines was evaluated by the MTT assay. The cells were cultured in a 96-well plate (1 × 10^4 cells/well, 100 μL/well) containing DMEM medium provided with 10% fetal bovine serum, and 1% penicillin/streptomycin. Then, the cells were incubated at 37 °C for 24 h in a CO2 incubator under 5% CO2, 95% air until reaching a confluence of 70–80%. A 20 μL volume of each compound at different concentrations (from 5 to 400 μM for the cancer cell and from 600 to 1000 μM for the normal cells) was added and the cells were re-incubated for a further 24 h. After the incubation period, the cells were incubated again with 5 mg/mL of MTT for 4 h and then the medium was replaced with 100 μL DMSO and vortexed for 20 min. Finally, the absorbance was recorded at 570 nm using the microplate reader. […] To calculate the cell inhibition percentage, the following equation was used:% Cell inhibition = 100 − % cell viability ((At − Ab)/(Ac − Ab)) × 100%)(4) where At is the absorbance value of tested compound; Ab is the absorbance value of blank; Ac is the absorbance value of the control.

Molecule	Therapeutic index: IC50 of THLE-2 cell/IC50 of MCF-7
Nc1ccccc1-c1nc2ccccc2[nH]1 [Hapbim, 2-aminophenyl benzimidazole]	18.5
[Ru(II)Cl2(DMSO)2(Hapbim)] [(1)]	5.8
CS(C)=O.Nc1ccccc1-c1nc2ccccc2[nH]1.O.[Cl][Ru]([Cl])[Cl] [(2), [Ru(III)Cl3(DMSO)(Hapbim)]·H2O]	10.89

— article PMC7570852, “Ruthenium(II)/(III) DMSO-Based Complexes of 2-Aminophenyl Benzimidazole with In Vitro and In Vivo Anticancer Activity” (Molecules, 2020)
